This series has as its system patients with anti-EPO antibody-mediated PRCA. As to the kind of experiment: Open-label clinical study in patients with anti-EPO antibody-mediated PRCA. It counts as in vivo, human. On the procedure:
An open-label, prospective, non-randomized study was conducted to investigate the ability of Peptide I to correct anemia in patients with PRCA that is characterized by anti-EPO antibodies. The pre-specified primary objective was to determine if Peptide I could increase and maintain hemoglobin levels above 11 g/dL (consistent with both U.S.[KDOQI Clinical Practice Guidelines and Clinical Practice Recommendations for Anemia in Chronic Kidney Disease (2006) Am. J. Kidney Dis. 47 (Suppl 3):S11-S145.] and European Guidelines [Locatelli F, et al. (2004) Nephrol. Dial. Transplant 19 (Suppl 2): ii1-47.]) without the need for red cell transfusions in patients with anti-EPO antibody-mediated PRCA during 6 months of treatment. The effect of Peptide I on reducing red cell transfusions, the time required to correct anemia in the absence of transfusions, dose requirements, and safety were also assessed.
Patients older than 18 years of age were eligible for inclusion if they had CKD (with or without the need for dialysis) and PRCA or red cell hypoplasia due to anti-EPO antibodies. Patients were required to have a documented history of: (1) a decrease in hemoglobin concentration while receiving a stable or increased dose of a protein-based ESA, or red cell transfusion dependency; (2) reticulocyte counts of <30×10^9/L; (3) a bone marrow examination showing severe erythroid hypoplasia or aplasia; and (4) a confirmed positive test for anti-EPO antibodies. Patients may have received immunosuppressive therapy previously, but these medications were to be discontinued for at least three months prior to enrollment. At the time of enrollment, patients had to either be transfusion-dependent, or have a hemoglobin concentration persistently below 11 g/dL without ESA therapy. The presence of another hematological disorder, another known cause of PRCA, and current treatment with ESA or immunosuppressive therapy represented the major exclusion criteria. […]

Consider “PEGylated homodimer of peptide monomers (AcG)GLYACHMGPIT(1-nal)VCQPLR(MeG)K (SEQ ID NO: 2), EPO-R agonist [Peptide I]”, for which, under “data not shown”, the “anti-EPO antibodies over the course of the study” value was “declined over the course of the study in most patients”. Besides, for the setting “human, in vivo”, the “median dose at the time of hemoglobin response” value is reported as 0.08 mg/kg per month and the “patients remaining anti-EPO antibody-positive” value is recorded as “Seven of 10”.

(Values after patent US20090209457A1 (Affymax, Inc., priority 2008, published 2009).)
